PubChem BioAssay AID743448 – Peter MacCallum Cancer Centre, 2014
Assay: 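Test whether knock-downs sensitising to vorinostat hold across several colon lines but not etoposide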 (follow-up of hits). Cell system: four human colon cancer cell lines: HCT116-VR (vorinostat-resistant HCT116 derivative), SW480, SW620 and LIM1215. Reagent: siRNA pool against human genes, 40 nM siRNA pool. Timing: drug added two days after transfection, read one day later. Challenge: vorinostat 2.5 µM on one half of each plate, etoposide 5 µM on the other half. Cell line and drug panel: LIM1215 cells with etoposide. Detection: 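Caspase 3/7 activity by luminescence and live-cell viability by fluorescence, each given as a ratio to mock-transfected wells and as a robust z-score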. Reading the numbers: caspase ratio to mock: higher = more caspase activity than mock; viability ratio to mock: higher = more live cells than mock; caspase robust z-score: higher = more caspase activity, more apoptosis; viability robust z-score: higher = more live cells. Active means: 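a row is a hit if caspase relative to mock is 1.6 or above or viability relative to mock is 0.75 or below; wells dying heavily without drug are not called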. Calls: active = caspase or viability hit in this panel; inactive = no change, or unhealthy well.
Shown is a random part of the 106 reagents, in one setting of the screen. 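Calls are per line and drug panel including etoposide, not vorinostat-specific; gene picks needed hits in two or more extra lines with vorinostat versus etoposide.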

no.	gene knocked down	caspase ratio to mock	viability ratio to mock	caspase robust z-score	viability robust z-score	call
1	NUP133	1.72	0.86	-0.36	-0.44	active
2	TGM5	1.21	1.07	-0.91	1	inactive
3	SEMA4F	2.59	0.81	0.48	-0.74	active
4	FLII	1.86	1.13	-0.2	1.34	active
5	CDK10	4	0.93	2	0.05	active
6	DPPA5	1.43	0.82	-0.62	-0.68	inactive
7	SERTAD1	1.69	0.92	-0.4	-0.04	active
8	H1-5	2.77	0.84	0.64	-0.57	active
9	OR6T1	3.97	0.9	1.92	-0.21	active
10	RBM42	1.34	0.74	-0.77	-1.22	active
11	RBBP8	2.8	1.06	0.7	0.85	active
12	BDP1	1.36	0.79	-0.74	-0.91	inactive
13	C1orf52	1.48	0.86	-0.58	-0.42	inactive
14	POLR2L	1.2	0.78	-0.93	-0.96	inactive

Next part (5 carried over from the part before).
no.	gene knocked down	caspase ratio to mock	viability ratio to mock	caspase robust z-score	viability robust z-score	call
10	RBM42	1.34	0.74	-0.77	-1.22	active
11	RBBP8	2.8	1.06	0.7	0.85	active
12	BDP1	1.36	0.79	-0.74	-0.91	inactive
13	C1orf52	1.48	0.86	-0.58	-0.42	inactive
14	POLR2L	1.2	0.78	-0.93	-0.96	inactive
15	EIF1AX	1.79	0.76	-0.4	-1.1	active
16	RERE	4.37	1.22	2.15	2	active
17	TFAP2D	2.47	1.34	0.26	2.73	active
18	AP5S1	2.15	0.61	-0.11	-2.05	inactive
19	PLAG1	1.47	1	-0.65	0.47	inactive
20	RGS18	2.36	1.21	0.18	1.9	active
21	GNG8	2.86	0.78	0.74	-0.96	inactive
22	AMDHD2	3.12	0.72	0.92	-1.36	active
23	LCE2A	3	1	0.83	0.5	inactive
24	MRPL19	2.04	1	-0.08	0.5	active
25	PSMA7	3.08	0.97	1.1	0.31	inactive
26	CNOT1	9.14	1.12	7.4	1.29	active
27	POLR2G	2	0.98	-0.13	0.38	active
28	C1orf210	4.7	0.88	2.62	-0.24	inactive
29	MED28	1.71	1	-0.38	0.5	active
30	PUF60	3.27	1	1.24	0.52	active
31	PRRT3	2.11	0.96	-0.02	0.25	inactive
32	HSPA6	1.74	0.68	-0.38	-1.6	active
33	INTS6L	1.76	0.89	-0.4	-0.23	inactive
34	MSANTD1	2.15	0.86	0.07	-0.49	active
35	NUP58	3.51	1.1	1.46	1.19	active
36	POLR2K	1.49	0.97	-0.66	0.3	inactive
